Record: PubChem BioAssay AID1224829 (NIAID, 2016)
Test: 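Secondary check of hits that alter LPS-induced p65 translocation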 (follow-up of hits). System: mouse RAW264.7 G9 macrophage reporter cells. Knock-down reagent: single siRNA against mouse genes, 100 nM. Time to read-out: 2 days of siRNA knock-down, then 40 min of LPS before fixing. Treatment: LPS (Salmonella minnesota R595) at 10 ng/ml. Measured: 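High-content images after 40 min LPS exposure; GFP-p65 nucleus to surrounding ring signal ratio, normalised to plate median and non-targeting control wells, expressed as z-score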. Direction: p65 translocation z-score: higher = more nuclear NF-kappaB p65 after LPS. Active means: 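Active means the replicate-mean z-score lies beyond plus or minus 2, in either direction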. Meaning of the calls: active = changed p65 translocation (either direction); inactive = no clear change.
In all, the deposit lists about 3,800 reagents; shown is a part drawn at random. 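Calls cover raised and lowered translocation; gene median uses one vendor's three siRNAs; qiagen siRNAs acted more weakly than ambion siRNAs.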 Unmarked entries are inactive. Reagents against one gene are numbered here. Not all columns of the deposit are shown.

With Map6 (GeneID 17760) #1, siRNA vendor or control pool ambion single siRNA the deposit lists p65 translocation z-score, replicate mean -2.02 (active).
Map6 (GeneID 17760) #2, siRNA vendor or control pool ambion single siRNA showed p65 translocation z-score, replicate mean -1.43.
With Map6 (GeneID 17760) #3, siRNA vendor or control pool ambion single siRNA, the entry reads p65 translocation z-score, replicate mean -3.55 (active).
With Map6 (GeneID 17760) #4, siRNA vendor or control pool qiagen single siRNA, the values are p65 translocation z-score, replicate mean -2.29 (active).
Map6 (GeneID 17760) #5, siRNA vendor or control pool qiagen single siRNA gave p65 translocation z-score, replicate mean -0.558.
Map6 (GeneID 17760) #6, siRNA vendor or control pool qiagen single siRNA gave p65 translocation z-score, replicate mean -2.98 (active).
With Ctsw (GeneID 13041) #1, siRNA vendor or control pool ambion single siRNA, the entry reads p65 translocation z-score, replicate mean 1.44.
For Ctsw (GeneID 13041) #2, siRNA vendor or control pool ambion single siRNA, the entry reads p65 translocation z-score, replicate mean -2.1 (active).
Ctsw (GeneID 13041) #3, siRNA vendor or control pool ambion single siRNA scored p65 translocation z-score, replicate mean -1.39.

Reagents above called active:
Map6 (GeneID 17760) #1, siRNA vendor or control pool ambion single siRNA | p65 translocation z-score, replicate mean: -2.02 (active)
Map6 (GeneID 17760) #3, siRNA vendor or control pool ambion single siRNA | p65 translocation z-score, replicate mean: -3.55 (active)
Map6 (GeneID 17760) #4, siRNA vendor or control pool qiagen single siRNA | p65 translocation z-score, replicate mean: -2.29 (active)
Map6 (GeneID 17760) #6, siRNA vendor or control pool qiagen single siRNA | p65 translocation z-score, replicate mean: -2.98 (active)
Ctsw (GeneID 13041) #2, siRNA vendor or control pool ambion single siRNA | p65 translocation z-score, replicate mean: -2.1 (active)

The list goes on.
Polr2b (GeneID 231329) #1, siRNA vendor or control pool ambion single siRNA scored p65 translocation z-score, replicate mean 0.404.
For Polr2b (GeneID 231329) #2, siRNA vendor or control pool ambion single siRNA, the entry reads p65 translocation z-score, replicate mean 1.93.
Polr2b (GeneID 231329) #3, siRNA vendor or control pool ambion single siRNA scored p65 translocation z-score, replicate mean -0.465.
For Polr2b (GeneID 231329) #4, siRNA vendor or control pool qiagen single siRNA, the entry reads p65 translocation z-score, replicate mean -2.17 (active).
With Polr2b (GeneID 231329) #5, siRNA vendor or control pool qiagen single siRNA, the values are p65 translocation z-score, replicate mean -3.54 (active).
Polr2b (GeneID 231329) #6, siRNA vendor or control pool qiagen single siRNA gave p65 translocation z-score, replicate mean -3.51 (active).
Creb5 (GeneID 231991) #1, siRNA vendor or control pool qiagen single siRNA showed p65 translocation z-score, replicate mean 1.9.
With Creb5 (GeneID 231991) #2, siRNA vendor or control pool qiagen single siRNA, the entry reads p65 translocation z-score, replicate mean -0.156.
Creb5 (GeneID 231991) #3, siRNA vendor or control pool qiagen single siRNA gave p65 translocation z-score, replicate mean -8.3 (active).
Supt5 (GeneID 20924) #1, siRNA vendor or control pool ambion single siRNA showed p65 translocation z-score, replicate mean -2.53 (active).
Supt5 (GeneID 20924) #2, siRNA vendor or control pool ambion single siRNA showed p65 translocation z-score, replicate mean -4.19 (active).
Supt5 (GeneID 20924) #3, siRNA vendor or control pool ambion single siRNA scored p65 translocation z-score, replicate mean -4.41 (active).
Supt5 (GeneID 20924) #4, siRNA vendor or control pool qiagen single siRNA scored p65 translocation z-score, replicate mean -2.98 (active).
Supt5 (GeneID 20924) #5, siRNA vendor or control pool qiagen single siRNA scored p65 translocation z-score, replicate mean -2.84 (active).
For Supt5 (GeneID 20924) #6, siRNA vendor or control pool qiagen single siRNA, the values are p65 translocation z-score, replicate mean -1.94.
